From PubChem BioAssay AID1259415 (National Center for Advancing Translational Sciences (NCATS), 2018)
About 18,000 (4.4%) of roughly 410,000 compounds were called active. Inconclusive results, whose numbers are uncertain, are shown with a selection of clear calls. Rule as the data show it: active = activity change below about -60%; inconclusive = no clear call, values can overlap the other calls; inactive = above about -39%.
% is scaled to controls: 0 for no effect and ±100 for the full control effect.

Experiment: qHTS Assay for inhibitors of the human cytomegalovirus (HCMV)
Conditions: HFF cells, HCMV-luciferase reporter, 72 h; at 57.5 µM; hits give low values
Excerpt: NCGC Assay Overview: Infection with human cytomegalovirus (HCMV) continues to pose significant threats for pregnant women and immunocompromised hosts. HCMV causes serious morbidity and mortality in transplant recipients, and congenital HCMV is the leading infectious cause of mental retardation and deafness in children. In the 1990s, the annual costs associated with the disease burden of congenital CMV were estimated at around $2 billion. A HCMV vaccine is not available yet and HCMV therapies result in intolerable side effects and emergence of drug resistant viruses. […] Towards this goal we have developed and characterized a luciferase HCMV reporter that was initially used in 96 well plates and then optimized to 1536-well plates for utilization in screening of the MLSMR collection, the NGCG diversity collection and the NCGC Pharmaceutical Collection of approved and investigational drugs.
NCGC Assay Protocol Summary:
This is a cell-based assay for HCMV inhibition in HFFs cells. The screening used 2 compound doses and the HCMV-luciferase at MOI of 1 PFU/cell. Cells were treated and infected with HCMV. At 72 h post infection cell lysates were collected and luciferase activity was determined using the Glomax-Multi + Detection System (Promega, Madison, WI). Data were normalized to the controls for basal activity (buffer only) and known HCMV inhibitors Salinmoycin.
1536-well assay protocol for the assay:
(1) Add 3 ul CMV/HFF cell culture. 1000 cells/well in DMEM nirmal media.
(2) Incubate 16 hr at 37C.
(3) Add 23 nl control compound, 10uM of Salinomycin.
(4) Add 23 nl compounds in DMSO solution.
(5) Add 3 ul CMV suspension. Final 1 puf/ul, Virus stock 2000pfu/ul
(6) Incubate 72 hrs at 37C.
(7) Add 4 ul OneGlo Luc Reagent.
(8) Incubate 5 min at room temperature.
In the case of `CCCCc1n(CC(=O)c2ccc(Cl)cc2)c2ccccc2[n+]1C`, the activity change, negative = inhibition is reported as inconclusive: -41.2%.
With `COc1ccc(NC(=O)c2c3c(nc4ccccc24)CCN(Cc2ccccc2)C3)c(OC)c1` the activity change, negative = inhibition was inconclusive: -45.8%.
For `Cc1cccn2c(=O)c3cc(C(=O)NCc4cccnc4)c(=N)n(CC4CCCO4)c3nc12` (stereo not drawn), the activity change, negative = inhibition was inconclusive: -48.1%.
In the case of `CN(CC(=O)Nc1ccc(Cl)cc1F)S(=O)(=O)c1ccc2c(c1)n(C)c(=O)c(=O)n2C`, the activity change, negative = inhibition is reported as inactive: -5.93%.
For `COC(=O)C1=C(CS(=O)(=O)c2ccccc2)NC(=O)NC1c1ccc(O)cc1` (stereo not drawn), the activity change, negative = inhibition was inactive: -9.14%.
In the case of `CC(C)OC(=O)c1ccc(NC(=O)c2cccc(-n3cnnn3)c2)cc1`, the activity change, negative = inhibition is reported as inconclusive: -51.4%.
For `CN1CCc2c(sc3c2C(=O)NC(/C=C/c2ccco2)N3)C1` (stereo not drawn), the activity change, negative = inhibition was inconclusive: -40.1%.
With `CC1CCN(c2ccc(C(=O)Nc3ccc4c(c3)OCO4)cc2[N+](=O)[O-])CC1` the activity change, negative = inhibition was active: -60.8%.
With `O=C(Nc1ccc(Br)cc1)C1CCCN1S(=O)(=O)c1cccs1` (stereo not drawn) the activity change, negative = inhibition was inconclusive: -57.6%.
In the case of `COc1ccc(S(=O)(=O)N2CCN(C)CC2)cc1NC(=O)c1ccccc1`, the activity change, negative = inhibition is reported as inconclusive: -45.2%.
In the case of `Cc1ccc(NC(=O)CN(C)S(=O)(=O)c2cccc3cccnc23)cc1F`, the activity change, negative = inhibition is reported as inconclusive: -43.7%.
For `Cc1ccc(N=Cc2nc(-c3ccco3)oc2O)cc1`, the activity change, negative = inhibition was inconclusive: -46.2%.
With `COc1ccc(Cl)cc1Nc1nc2ccc(C(=O)c3ccccc3)cc2n2cnnc12` the activity change, negative = inhibition was inconclusive: 0%.
For `O=C(Nc1ccc(F)c(Cl)c1)C1CCCC1`, the activity change, negative = inhibition was inconclusive: -48.3%.
With `O=C(COC(=O)c1ccc(-c2ccc([N+](=O)[O-])cc2)o1)NC(=O)NC12CC3CC(CC(C3)C1)C2` the activity change, negative = inhibition was inconclusive: -44.4%.
In the case of `O=C(Nc1cc(Cl)ccc1N1CCCC1)C1=NN(c2ccccc2)C(=O)CC1`, the activity change, negative = inhibition is reported as inconclusive: -54.5%.
With `CCN(c1ccccc1)S(=O)(=O)c1ccc(Cl)c(NC(=O)CN(C)C2CCN(C)CC2)c1` the activity change, negative = inhibition was inconclusive: -55.2%.
For `Cc1ccccc1NC(=O)NCCCN1CCCC1`, the activity change, negative = inhibition was inactive: 33.4%.
In the case of `CCOc1ccc(C(=O)N2CCC(C(=O)c3ccc4c(c3)OCCO4)CC2)cc1`, the activity change, negative = inhibition is reported as inconclusive: -52.2%.
For `COc1ccc(C2CC(=O)c3cnc4c(-c5ccccc5)c(C)nn4c3C2)cc1OC` (stereo not drawn), the activity change, negative = inhibition was inactive: -35.2%.
For `CCOc1ccc(NC(=O)CSc2nnc(-c3cc(C)[nH]n3)n2N)cc1`, the activity change, negative = inhibition was inconclusive: -43.6%.
In the case of `Cc1cc(OCC(=O)Nc2sc3c(c2C#N)CC(C)(C)NC3(C)C)c(C(C)C)cc1Cl`, the activity change, negative = inhibition is reported as inactive: -21.1%.
With `O=C(CSc1nccn1-c1ccc(Cl)cc1)Nc1cccc2ccccc12` the activity change, negative = inhibition was inconclusive: -42.4%.
